Measurements from article PMC11861356.
These are yes or no findings as the source states them, for the method shown. Binding seen in cells or lysates may run through a third protein. Some binding calls cover weakened binding; strength is not graded here.

Sequences of proteins named here, by UniProt entry; tags and fusion partners are left off.
UniProt P42685: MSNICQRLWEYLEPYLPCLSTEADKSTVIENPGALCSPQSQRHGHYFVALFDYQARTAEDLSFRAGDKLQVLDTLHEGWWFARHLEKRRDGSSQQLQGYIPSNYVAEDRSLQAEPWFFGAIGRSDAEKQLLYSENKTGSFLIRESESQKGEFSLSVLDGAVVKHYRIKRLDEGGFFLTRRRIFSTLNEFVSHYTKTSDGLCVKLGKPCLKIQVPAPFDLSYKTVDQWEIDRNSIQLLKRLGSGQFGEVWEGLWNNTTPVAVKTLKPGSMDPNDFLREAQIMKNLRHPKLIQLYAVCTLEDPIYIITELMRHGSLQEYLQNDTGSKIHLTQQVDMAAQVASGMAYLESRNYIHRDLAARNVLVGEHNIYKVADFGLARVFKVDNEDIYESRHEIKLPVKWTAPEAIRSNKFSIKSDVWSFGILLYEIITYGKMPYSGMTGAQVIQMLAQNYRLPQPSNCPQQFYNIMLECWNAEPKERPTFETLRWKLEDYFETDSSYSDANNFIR

T1: IRF3, expressed in HEK293T cells (UniProt Q14653)
T1 sequence: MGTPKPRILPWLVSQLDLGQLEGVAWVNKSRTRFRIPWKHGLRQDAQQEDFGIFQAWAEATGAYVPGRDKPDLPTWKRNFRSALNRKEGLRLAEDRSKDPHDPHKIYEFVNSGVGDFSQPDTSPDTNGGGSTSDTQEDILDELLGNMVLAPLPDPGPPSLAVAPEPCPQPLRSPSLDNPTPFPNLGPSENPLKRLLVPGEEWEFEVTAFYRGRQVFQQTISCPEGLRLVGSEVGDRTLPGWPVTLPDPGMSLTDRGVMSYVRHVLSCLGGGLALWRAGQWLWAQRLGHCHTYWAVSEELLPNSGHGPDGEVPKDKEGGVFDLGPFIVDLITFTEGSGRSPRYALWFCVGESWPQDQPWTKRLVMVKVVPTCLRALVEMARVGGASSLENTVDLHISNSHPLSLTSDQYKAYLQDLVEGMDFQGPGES

T2: TBK1, expressed in HEK293T cells (UniProt Q9UHD2)
T2 sequence: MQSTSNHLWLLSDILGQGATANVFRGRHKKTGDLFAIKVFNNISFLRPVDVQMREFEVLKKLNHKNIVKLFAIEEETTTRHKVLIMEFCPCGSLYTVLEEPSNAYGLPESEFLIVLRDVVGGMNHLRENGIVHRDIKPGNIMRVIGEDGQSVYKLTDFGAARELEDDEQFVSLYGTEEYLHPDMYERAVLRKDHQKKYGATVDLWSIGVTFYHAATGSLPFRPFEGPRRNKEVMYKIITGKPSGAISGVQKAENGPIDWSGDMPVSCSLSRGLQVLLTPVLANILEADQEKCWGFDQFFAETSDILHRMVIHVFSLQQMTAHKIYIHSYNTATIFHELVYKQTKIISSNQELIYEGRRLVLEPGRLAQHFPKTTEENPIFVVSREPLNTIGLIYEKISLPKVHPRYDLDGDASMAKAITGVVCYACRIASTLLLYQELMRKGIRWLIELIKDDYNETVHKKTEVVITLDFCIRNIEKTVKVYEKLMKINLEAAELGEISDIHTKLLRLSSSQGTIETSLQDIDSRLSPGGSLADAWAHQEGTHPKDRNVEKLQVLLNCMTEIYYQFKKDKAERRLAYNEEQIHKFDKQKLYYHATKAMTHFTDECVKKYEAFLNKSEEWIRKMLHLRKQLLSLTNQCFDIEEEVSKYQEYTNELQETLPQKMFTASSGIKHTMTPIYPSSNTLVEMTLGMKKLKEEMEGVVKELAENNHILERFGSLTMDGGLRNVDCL


Key:
Assay in all cases: co-IP
[1] = target: T1, IRF3, expressed in HEK293T cells
[2] = target: T2, TBK1, expressed in HEK293T cells
[3] = target: Fyn-related kinase (Frk), expressed in HEK293T cells (UniProt P42685)

Row | binding [1] | binding [2] | binding [3] | Molecule
1 | binds | binds | – | Fyn-related kinase (Frk), expressed in HEK293T cells (from UniProt P42685 1-505) (enzyme)
2 | – | – | binds | TBK1, expressed in HEK293T cells (enzyme, UniProt Q9UHD2 1-729) MQSTSNHLWLLSDILGQGATANVFRGRHKKTGDLFAIKVFNNISFLRPVDVQMREFEVLKKLNHKNIVKLFAIEEETTTRHKVLIMEFCPCGSLYTVLEEPSNAYGLPESEFLIVLRDVVGGMNHLRENGIVHRDIKPGNIMRVIGEDGQSVYKLTDFGAARELEDDEQFVSLYGTEEYLHPDMYERAVLRKDHQKKYGATVDLWSIGVTFYHAATGSLPFRPFEGPRRNKEVMYKIITGKPSGAISGVQKAENGPIDWSGDMPVSCSLSRGLQVLLTPVLANILEADQEKCWGFDQFFAETSDILHRMVIHVFSLQQMTAHKIYIHSYNTATIFHELVYKQTKIISSNQELIYEGRRLVLEPGRLAQHFPKTTEENPIFVVSREPLNTIGLIYEKISLPKVHPRYDLDGDASMAKAITGVVCYACRIASTLLLYQELMRKGIRWLIELIKDDYNETVHKKTEVVITLDFCIRNIEKTVKVYEKLMKINLEAAELGEISDIHTKLLRLSSSQGTIETSLQDIDSRLSPGGSLADAWAHQEGTHPKDRNVEKLQVLLNCMTEIYYQFKKDKAERRLAYNEEQIHKFDKQKLYYHATKAMTHFTDECVKKYEAFLNKSEEWIRKMLHLRKQLLSLTNQCFDIEEEVSKYQEYTNELQETLPQKMFTASSGIKHTMTPIYPSSNTLVEMTLGMKKLKEEMEGVVKELAENNHILERFGSLTMDGGLRNVDCL
